For one substance, binding results are on record in patent US20260000781A1, “FC CONJUGATES INCLUDING AN INHIBITOR OF CD73 AND USES THEREOF” (Cidara Therapeutics, Inc., priority 2022, published 2026).

No constants are given. Whether binding was seen depends on the method and setting. Some results given as binding are weak or reduced against the parent protein; the word gives no strength. Tags and fused reporters may be left off the sequences shown.

The target of this experiment is T1, Enzymatically active His-tagged human CD73/NT5E protein (human) (UniProt P21589).
T1 sequence (looked up): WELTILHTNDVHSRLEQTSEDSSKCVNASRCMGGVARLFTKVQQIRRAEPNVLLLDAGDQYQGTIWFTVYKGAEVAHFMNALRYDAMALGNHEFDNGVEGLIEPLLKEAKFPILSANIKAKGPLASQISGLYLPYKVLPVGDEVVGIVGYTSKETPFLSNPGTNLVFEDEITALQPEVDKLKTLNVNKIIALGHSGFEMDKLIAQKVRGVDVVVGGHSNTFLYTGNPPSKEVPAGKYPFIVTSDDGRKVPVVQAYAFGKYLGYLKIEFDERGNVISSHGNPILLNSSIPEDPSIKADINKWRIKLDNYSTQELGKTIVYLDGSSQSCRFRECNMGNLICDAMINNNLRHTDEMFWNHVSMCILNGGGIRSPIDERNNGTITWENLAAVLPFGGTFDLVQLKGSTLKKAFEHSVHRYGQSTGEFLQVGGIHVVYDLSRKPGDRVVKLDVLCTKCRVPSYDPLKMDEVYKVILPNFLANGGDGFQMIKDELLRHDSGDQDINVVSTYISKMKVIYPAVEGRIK
Briefly: CD73-capture ELISA, plate coated with His-tagged human CD73, anti-human IgG Fc HRP detection. In general terms: An ELISA detects its analyte on a solid surface through an enzyme-linked reagent.

For the substance “Conjugate 133a (from UniProt P0DOX5 203-448)”, the binding result is on record as “binds”.
